Patent publication US10414725B2, “Pyrrolomycins and methods of using the same” (priority 2015, dated 2019)

Tested on: Bacillus anthracis

O=C(O)c1cn(C2CC2)c2cc(N3CCNCC3)c(F)cc2c1=O [ciprofloxacin]
reduction of BA culture viability: fails to kill BA
